Details of this series: key to smell evaluation: 0: Not smelled.; 1: Smelled but not unpleasant.; 2: Unpleasant smell.
Where [1] appears, read: Aqueous solution (mixed liquid of column eluate and acid; hydrochloride at same molar concentrations), one score per subject, five subjects.
Where [2] appears, read: Solid, one score per subject, five subjects.
The mark [3] stands for this setting: aqueous solution of 0.5 g in 1 ml of water, one score per subject A-E.

SMILES strings stand for the structures. “And” between values parts separate entries of the source, which are not always exact repeats. Identical values can stand only once. Like-named read-outs stand apart in the source and are kept apart here.

Take `Cl.NCC(=O)CCC(=O)O` [5-aminolevulinic acid hydrochloride, reference compound]: the smell evaluation was 2 under setting [1]; 1 under setting [2]; 1 (3×) and 0 (2×) (aqueous solution of 0.5 g in 1 ml of water, one score per subject A-E, listed as Comparative Example 2, hydrochloride); 1 (3×) and 0 (2×) (aqueous solution of 0.5 g in 1 ml of water, one score per subject A-E, listed as Comparative Example 6, hydrochloride); 1 (3×) and 0 (2×) (aqueous solution of 0.5 g in 1 ml of water, one score per subject A-E, listed as Comparative Example 8, hydrochloride).

As to `NCC(=O)CCC(=O)O.O=[N+]([O-])O` [5-aminolevulinic acid nitrate, 5-aminolevulinic Acid Nitrate], the “smells of aqueous solution in comparison with hydrochloride” value (from here on “smells of aqueous solution in comparison”) was “smells were not found” and the “smells of solid in comparison with hydrochloride” value (shortened to “smells of solid in comparison”) is listed as “generated no smells”. In addition, under setting [1], the smell evaluation turned out to be 0. The compound also had a smell evaluation under setting [2] of 0. Under setting [3], this compound had a smell evaluation of 0.

Take `Cc1ccc(S(=O)(=O)O)cc1.NCC(=O)CCC(=O)O` [5-aminolevulinic acid p-toluenesulfonate, 5-aminolevulinic Acid p-toluenesulfonate]: the “smells of aqueous solution in comparison” value was “smells were not found” and the “smells of solid in comparison” value was “generated no smells”. Under setting [1], this compound gave a smell evaluation of 0. Also, the smell evaluation under setting [2] was found to be 0. Also, the smell evaluation under setting [3] stood at 0.

In the case of `NCC(=O)CCC(=O)O.O=P(O)(O)O` [5-aminolevulinic acid phosphate, 5-aminolevulinic Acid Phosphate], the “smells of aqueous solution in comparison” value is reported as “smells were not found” and the “smells of solid in comparison” value was “generated no smells”. The compound further gave a smell evaluation under setting [1] of 0. In addition, the smell evaluation under setting [2] amounted to 0. Also, the smell evaluation under setting [3] was 0.

Values taken from patent US8471061B2 (priority 2004, dated 2013).
